Values quoted from earlier work as cited in patent US20190078102A1, “BIOSYNTHETIC PRODUCTION OF STEVIOL GLYCOSIDES AND PROCESSES THEREFORE” (Conagen-Inc., priority 2017, published 2019).
Some results were stated once for a whole list of compounds, not compound by compound. At least one structure is not confirmed: it was looked up by name or label, or the drawing left a doubt.

Conditions: background statement

C=C1C[C@@]23CC[C@H]4[C@@](C)(CCC[C@@]4(C)C(=O)O[C@@H]4O[C@H](CO)[C@@H](O)[C@H](O)[C@H]4O[C@@H]4O[C@H](CO)[C@@H](O)[C@H](O)[C@H]4O)[C@@H]2CC[C@]1(O[C@@H]1O[C@H](CO)[C@@H](O)[C@H](O)[C@H]1O[C@@H]1O[C@H](CO)[C@@H](O)[C@H](O)[C@H]1O)C3 [rebaudioside E]
times sweeter than sucrose: 250-450 times

C=C1C[C@@]23CC[C@H]4[C@@](C)(CCC[C@@]4(C)C(=O)O[C@@H]4O[C@H](CO)[C@@H](O)[C@H](O)[C@H]4O)[C@@H]2CC[C@]1(O[C@@H]1O[C@H](CO)[C@@H](O)[C@H](O[C@@H]2O[C@H](CO)[C@@H](O)[C@H](O)[C@H]2O)[C@H]1O[C@@H]1O[C@H](CO)[C@@H](O)[C@H](O)[C@H]1O)C3 [rebaudioside A]
times sweeter than sucrose: 250-450 times
